Test results from article doi:10.1101/2025.09.05.674581.

Protein sequences, listed by entry. Tags and fused reporters are not part of them. Lines headed by an entry give the natural chain unless they say otherwise; changes in a name come on top.
UniProt Q61701, whole entry: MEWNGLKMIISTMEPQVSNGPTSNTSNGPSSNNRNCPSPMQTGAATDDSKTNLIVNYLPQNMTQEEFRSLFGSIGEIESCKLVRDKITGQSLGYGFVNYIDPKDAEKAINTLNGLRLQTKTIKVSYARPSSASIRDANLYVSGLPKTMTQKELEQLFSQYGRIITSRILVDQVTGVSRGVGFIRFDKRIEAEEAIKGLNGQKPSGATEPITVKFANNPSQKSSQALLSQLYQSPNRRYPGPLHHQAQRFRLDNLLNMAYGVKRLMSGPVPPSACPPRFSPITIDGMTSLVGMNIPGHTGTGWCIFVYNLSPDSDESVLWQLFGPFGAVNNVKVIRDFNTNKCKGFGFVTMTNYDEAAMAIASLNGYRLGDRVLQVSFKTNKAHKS

What follows are molecules tested against FLAG-HA-tagged HuD (UniProt Q61701) (assay: affinity purification with mass spectrometry).

Row | Molecule | binding
1 | IGF2BP3 (from UniProt Q9CPN8 1-579) | binds
2 | MATR3 (from UniProt Q8K310 1-846) | binds
3 | PCBP2 (from UniProt Q61990 1-362) | binds
4 | TDP-43 (from UniProt Q921F2 1-414) | binds
5 | hnRNPC (from UniProt Q9Z204 1-313) | binds

Target: FLAG-HA-tagged HuD (UniProt Q61701)
Experiment: affinity purification with mass spectrometry
Remark: another data set of the same source

Row | Molecule | binding
6 | SYNCRIP (protein, UniProt Q7TMK9 1-623) MATEHVNGNGTEEPMDTTSAVIHSENFQTLLDAGLPQKVAEKLDEIYVAGLVAHSDLDERAIEALKEFNEDGALAVLQQFKDSDLSHVQNKSAFLCGVMKTYRQREKQGTKVADSSKGPDEAKIKALLERTGYTLDVTTGQRKYGGPPPDSVYSGQQPSVGTEIFVGKIPRDLFEDELVPLFEKAGPIWDLRLMMDPLTGLNRGYAFVTFCTKEAAQEAVKLYNNHEIRSGKHIGVCISVANNRLFVGSIPKSKTKEQILEEFSKVTEGLTDVILYHQPDDKKKNRGFCFLEYEDHKTAAQARRRLMSGKVKVWGNVGTVEWADPIEDPDPEVMAKVKVLFVRNLANTVTEEILEKSFSQFGKLERVKKLKDYAFIHFDERDGAVKAMEEMNGKDLEGENIEIVFAKPPDQKRKERKAQRQAAKNQMYDDYYYYGPPHMPPPTRGRGRGGRGGYGYPPDYYGYEDYYDYYGYDYHNYRGGYEDPYYGYEDFQVGARGRGGRGARGAAPSRGRGAAPPRGRAGYSQRGGPGSARGVRGARGGAQQQRGRGVRGARGGRGGNVGGKRKADGYNQPDTKRRQTNNQNWGSQPIAQQPLQGGDHSGNYGYKSENQEFYQDTFGQQWK | binds

No constants are given. Whether binding was seen depends on the method and setting. In cells and extracts the contact can be indirect. A yes stands for co-enrichment or nearness to the bait. Other partners may have been found.
